For some of these results: At least one read-out could not be matched to a standard name with certainty. For at least one compound, name, drawing or mass did not settle the structure.
What was measured:
[1] = Drug recovery of PX 867 from stent coating; type: physicochemical; conditions: drug loaded into polymeric coating and applied to the stent
[2] = Content recovery of sirolimus/cilostazol stent coatings; type: physicochemical
[3] = system: vascular wall (neointimal hyperplasia); experiment: Porcine studies with rapamycin-coated stents; type: in vivo; conditions: porcine and rabbit models, nonerodible polymeric stent coating, 35-430 ug/15-18 mm coronary stent, maximal at about twenty-eight to thirty days
[4] = system: monocyte chemotactic protein (MCP-1); experiment: Cytokine levels in vascular tissue after delivery from a stent; type: in vivo; conditions: delivered from a stent
[5] = Drug concentration in liquid formulations (liquid chromatography); type: physicochemical
[6] = In vitro release kinetics from stent coating; type: physicochemical; conditions: single-layer sirolimus/cilostazol EVA/BMA coating with 100 μg BMA overcoat (FIG. 83)
From the text: In the study, the rapamycin and Panzem® are incorporated into different layers of a polymeric coating. In this study, a Bx Velocity stent is coated with a four hundred microgram inner layer and a three hundred microgram outer layer. The inner layer comprises forty-five percent Panzem® and fifty-five percent EVA/BMA (50/50). […] There is no topcoat of just polymer in this study. Curve 7100 illustrates the release kinetics of Panzem® from the coating.
Another critical parameter for the performance of the thrombus resistance of a device coated with cilostazol is the duration of the drug release from the coating. This is of particular significance in the two weeks after device implantation. In the porcine drug elution PK studies of the dual drug eluting coating, both cilostazol and sirolius were slowly released from the coating, resulting in a sustained drug release profile. The purpose of the porcine PK study is to assess the local pharmacokinetics of a drug eluting stent at a given implantation time. Normally three stents are implanted in three different coronary arteries in a pig for a given time point and then retrieved for total drug recovery analysis. […] The stents are extracted and the total amount of drug remaining on the stents is determined by analysis utilizing HPLC (high performance liquid chromatography) for total drug amount. […]

[7] = three-layer coating of FIG. 75 (200 μg BMA overcoat)
[8] = three-layer coating of FIG. 77 (100 μg BMA overcoat)

SMILES | percent recovery [1] | content recovery [2, 7] | content recovery [2, 8] | peak reduction in neointimal hyperplasia [3] | monocyte chemotactic protein (MCP-1) levels in the vascular wall [4] | dilution with water at which precipitation starts ([5]; 4 mg/ml liquid formulation with PEG 200) | concentration in the final solution (HPLC assay) ([5]; ethanol, Vitamin E TPGS and water formulation, ethanol less than two percent) | in vitro drug release [6]
COC[C@H]1OC(=O)/C(=C\N2CCCC2)C2=C(O)C(=O)C3=C([C@H](OC(C)=O)C[C@]4(C)C(=O)CC[C@@H]34)[C@]21C [PX-867] | greater than eighty | – | – | – | – | – | – | –
O=C1CCc2cc(OCCCCc3nnnn3C3CCCCC3)ccc2N1 [cilostazol, 6[4-(1-cyclohexyl-1H-tetrazol-5-yl)-butoxy]-3,4-dihydro-2-(1H)-quinolinone] | – | 98% of nominal drug content | 98% of nominal drug content | – | – | – | – | –
CO[C@H]1C[C@@H]2CC[C@@H](C)[C@@](O)(O2)C(=O)C(=O)N2CCCC[C@H]2C(=O)O[C@H]([C@H](C)C[C@@H]2CC[C@@H](O)[C@H](OC)C2)CC(=O)[C@H](C)/C=C(\C)[C@@H](O)[C@@H](OC)C(=O)[C@H](C)C[C@H](C)/C=C/C=C/C=C/1C [rapamycin] | – | 85% of nominal drug content | 85% of nominal drug content | fifty to fifty-five | highly effective in reducing monocyte chemotactic protein (MCP-1) levels | five to ten | 15000 µg/mL | ~35%

From patent US20080241215A1, “LOCAL VASCULAR DELIVERY OF PROBUCOL ALONE OR IN COMBINATION WITH SIROLIMUS TO TREAT RESTENOSIS, VULNERABLE PLAQUE, AAA AND STROKE” (priority 2007, published 2008)
